Assay results published in the supplement of paper PMC10849652.
The list shows a part of the results.

Amino acid sequences for entries named in this document (tags omitted). A change or cut given only in a name is not applied to a line headed by its entry.
UniProt P35914: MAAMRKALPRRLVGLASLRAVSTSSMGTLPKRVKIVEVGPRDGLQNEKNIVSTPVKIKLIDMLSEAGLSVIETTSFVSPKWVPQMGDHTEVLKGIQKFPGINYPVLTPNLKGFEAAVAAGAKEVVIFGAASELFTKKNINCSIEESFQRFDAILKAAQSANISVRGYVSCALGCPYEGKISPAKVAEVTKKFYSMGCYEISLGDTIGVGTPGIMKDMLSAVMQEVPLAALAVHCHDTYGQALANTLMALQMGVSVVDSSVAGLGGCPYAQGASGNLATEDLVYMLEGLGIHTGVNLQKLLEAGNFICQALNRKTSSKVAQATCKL
UniProt Q9NQE9: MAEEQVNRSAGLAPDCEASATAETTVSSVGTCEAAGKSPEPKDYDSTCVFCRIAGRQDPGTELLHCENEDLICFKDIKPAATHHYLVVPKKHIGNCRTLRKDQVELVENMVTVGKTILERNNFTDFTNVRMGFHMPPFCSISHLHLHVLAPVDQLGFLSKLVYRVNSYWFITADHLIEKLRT
UniProt O75146: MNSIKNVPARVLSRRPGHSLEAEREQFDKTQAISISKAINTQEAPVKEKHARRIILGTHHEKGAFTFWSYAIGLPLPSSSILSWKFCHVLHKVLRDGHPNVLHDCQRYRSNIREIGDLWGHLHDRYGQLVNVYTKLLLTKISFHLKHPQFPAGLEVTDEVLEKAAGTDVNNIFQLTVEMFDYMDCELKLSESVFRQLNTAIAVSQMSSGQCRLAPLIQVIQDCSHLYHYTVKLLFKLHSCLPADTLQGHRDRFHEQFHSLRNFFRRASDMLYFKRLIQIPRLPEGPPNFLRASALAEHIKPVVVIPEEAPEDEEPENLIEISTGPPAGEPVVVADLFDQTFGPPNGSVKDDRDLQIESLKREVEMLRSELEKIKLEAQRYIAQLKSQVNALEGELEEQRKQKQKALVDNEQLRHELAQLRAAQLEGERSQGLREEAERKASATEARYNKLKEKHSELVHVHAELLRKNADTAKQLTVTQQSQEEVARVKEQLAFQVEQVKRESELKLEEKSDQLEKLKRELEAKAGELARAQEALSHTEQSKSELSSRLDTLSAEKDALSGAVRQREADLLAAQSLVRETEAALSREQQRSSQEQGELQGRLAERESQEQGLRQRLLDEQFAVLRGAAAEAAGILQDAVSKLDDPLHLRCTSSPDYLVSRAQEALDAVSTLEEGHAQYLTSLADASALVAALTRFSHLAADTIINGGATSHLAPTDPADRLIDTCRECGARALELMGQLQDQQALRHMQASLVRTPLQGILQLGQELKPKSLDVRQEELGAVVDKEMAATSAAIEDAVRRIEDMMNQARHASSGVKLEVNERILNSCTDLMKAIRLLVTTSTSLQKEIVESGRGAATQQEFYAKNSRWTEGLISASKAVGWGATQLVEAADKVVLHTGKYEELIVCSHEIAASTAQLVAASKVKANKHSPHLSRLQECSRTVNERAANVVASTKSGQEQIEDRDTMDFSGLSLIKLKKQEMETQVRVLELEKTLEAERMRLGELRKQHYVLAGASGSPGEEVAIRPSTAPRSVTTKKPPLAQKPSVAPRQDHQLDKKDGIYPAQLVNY
UniProt P51659: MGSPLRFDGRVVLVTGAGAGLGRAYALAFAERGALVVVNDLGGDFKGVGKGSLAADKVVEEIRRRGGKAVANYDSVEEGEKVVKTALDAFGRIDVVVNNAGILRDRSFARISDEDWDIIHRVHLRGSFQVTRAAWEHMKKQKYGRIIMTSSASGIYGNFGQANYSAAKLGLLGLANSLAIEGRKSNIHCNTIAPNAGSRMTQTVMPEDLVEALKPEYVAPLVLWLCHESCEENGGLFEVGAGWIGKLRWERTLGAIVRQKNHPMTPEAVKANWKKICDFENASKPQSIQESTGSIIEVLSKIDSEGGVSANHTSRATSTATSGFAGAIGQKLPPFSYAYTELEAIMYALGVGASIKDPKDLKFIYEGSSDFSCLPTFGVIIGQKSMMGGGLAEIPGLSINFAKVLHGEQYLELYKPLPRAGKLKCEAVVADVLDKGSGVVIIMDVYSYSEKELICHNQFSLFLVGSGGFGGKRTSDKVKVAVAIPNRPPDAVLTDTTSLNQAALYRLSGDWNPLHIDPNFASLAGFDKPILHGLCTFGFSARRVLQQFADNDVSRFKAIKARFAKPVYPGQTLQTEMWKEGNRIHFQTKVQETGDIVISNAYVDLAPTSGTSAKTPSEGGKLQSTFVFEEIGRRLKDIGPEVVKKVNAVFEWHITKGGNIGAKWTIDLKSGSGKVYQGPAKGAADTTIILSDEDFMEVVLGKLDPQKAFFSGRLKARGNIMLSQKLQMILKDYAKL
UniProt Q9NP66: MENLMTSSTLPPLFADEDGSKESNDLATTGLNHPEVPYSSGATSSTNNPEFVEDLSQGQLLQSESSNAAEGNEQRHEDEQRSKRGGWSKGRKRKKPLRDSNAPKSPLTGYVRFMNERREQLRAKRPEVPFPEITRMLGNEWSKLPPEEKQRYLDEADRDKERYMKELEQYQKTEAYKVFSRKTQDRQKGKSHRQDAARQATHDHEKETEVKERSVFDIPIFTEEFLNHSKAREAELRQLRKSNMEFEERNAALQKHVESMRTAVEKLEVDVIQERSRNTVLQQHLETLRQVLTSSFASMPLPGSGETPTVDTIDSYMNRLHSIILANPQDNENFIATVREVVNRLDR
UniProt P51991: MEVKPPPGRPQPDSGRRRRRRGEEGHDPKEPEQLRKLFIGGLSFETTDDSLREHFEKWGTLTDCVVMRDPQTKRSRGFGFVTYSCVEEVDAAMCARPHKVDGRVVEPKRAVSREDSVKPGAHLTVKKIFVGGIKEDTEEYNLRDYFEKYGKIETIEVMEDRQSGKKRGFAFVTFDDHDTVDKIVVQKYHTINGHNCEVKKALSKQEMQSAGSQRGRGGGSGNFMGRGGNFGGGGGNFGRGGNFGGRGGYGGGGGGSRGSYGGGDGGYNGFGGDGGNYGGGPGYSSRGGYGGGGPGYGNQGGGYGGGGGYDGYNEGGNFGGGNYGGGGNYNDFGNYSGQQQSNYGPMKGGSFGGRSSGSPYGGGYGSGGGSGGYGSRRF
UniProt Q6NVY1: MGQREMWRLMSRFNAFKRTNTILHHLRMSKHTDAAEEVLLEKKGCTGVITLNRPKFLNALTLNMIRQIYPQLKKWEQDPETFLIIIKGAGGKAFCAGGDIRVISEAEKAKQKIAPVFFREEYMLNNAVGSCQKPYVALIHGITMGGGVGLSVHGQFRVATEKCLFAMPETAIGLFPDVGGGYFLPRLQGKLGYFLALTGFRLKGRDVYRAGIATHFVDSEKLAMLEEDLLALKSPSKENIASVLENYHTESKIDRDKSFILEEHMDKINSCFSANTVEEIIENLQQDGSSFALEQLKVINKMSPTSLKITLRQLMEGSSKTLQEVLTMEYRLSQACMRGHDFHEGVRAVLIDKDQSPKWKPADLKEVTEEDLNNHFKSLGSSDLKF
UniProt P11021: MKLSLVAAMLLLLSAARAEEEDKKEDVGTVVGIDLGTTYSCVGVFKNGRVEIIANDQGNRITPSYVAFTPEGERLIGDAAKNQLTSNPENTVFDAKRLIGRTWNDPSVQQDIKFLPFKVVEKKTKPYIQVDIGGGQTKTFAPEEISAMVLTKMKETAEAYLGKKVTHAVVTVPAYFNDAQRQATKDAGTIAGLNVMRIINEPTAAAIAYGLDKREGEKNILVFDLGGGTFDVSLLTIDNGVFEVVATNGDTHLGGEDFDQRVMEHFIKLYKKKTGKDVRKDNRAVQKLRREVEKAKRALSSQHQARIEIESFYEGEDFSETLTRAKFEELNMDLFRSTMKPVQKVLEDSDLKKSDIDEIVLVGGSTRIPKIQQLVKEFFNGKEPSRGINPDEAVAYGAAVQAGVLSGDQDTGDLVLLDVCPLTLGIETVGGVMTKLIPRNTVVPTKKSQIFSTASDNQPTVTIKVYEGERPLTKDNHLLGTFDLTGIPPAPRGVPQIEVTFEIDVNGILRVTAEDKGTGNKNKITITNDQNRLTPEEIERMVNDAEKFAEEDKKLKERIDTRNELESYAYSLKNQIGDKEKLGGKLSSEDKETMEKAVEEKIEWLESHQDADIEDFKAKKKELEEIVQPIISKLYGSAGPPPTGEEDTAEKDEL
UniProt P31937: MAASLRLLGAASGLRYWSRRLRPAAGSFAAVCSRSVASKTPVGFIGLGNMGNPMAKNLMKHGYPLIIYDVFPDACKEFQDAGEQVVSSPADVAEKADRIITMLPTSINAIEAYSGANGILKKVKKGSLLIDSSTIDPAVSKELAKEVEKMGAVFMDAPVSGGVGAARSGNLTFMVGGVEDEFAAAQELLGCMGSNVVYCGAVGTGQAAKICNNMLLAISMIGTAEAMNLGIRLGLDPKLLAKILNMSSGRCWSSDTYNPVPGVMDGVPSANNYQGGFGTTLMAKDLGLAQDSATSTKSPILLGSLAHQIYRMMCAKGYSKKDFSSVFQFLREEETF
UniProt P07910: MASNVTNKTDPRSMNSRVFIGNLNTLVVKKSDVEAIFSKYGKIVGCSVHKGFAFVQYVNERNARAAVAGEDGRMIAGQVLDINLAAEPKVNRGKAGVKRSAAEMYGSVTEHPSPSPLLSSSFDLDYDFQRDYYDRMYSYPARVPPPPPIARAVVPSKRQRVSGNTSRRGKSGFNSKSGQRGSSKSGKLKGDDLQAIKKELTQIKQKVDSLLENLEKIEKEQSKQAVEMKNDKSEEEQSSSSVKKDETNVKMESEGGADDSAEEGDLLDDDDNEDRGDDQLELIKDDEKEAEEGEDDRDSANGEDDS
UniProt Q8TCT9: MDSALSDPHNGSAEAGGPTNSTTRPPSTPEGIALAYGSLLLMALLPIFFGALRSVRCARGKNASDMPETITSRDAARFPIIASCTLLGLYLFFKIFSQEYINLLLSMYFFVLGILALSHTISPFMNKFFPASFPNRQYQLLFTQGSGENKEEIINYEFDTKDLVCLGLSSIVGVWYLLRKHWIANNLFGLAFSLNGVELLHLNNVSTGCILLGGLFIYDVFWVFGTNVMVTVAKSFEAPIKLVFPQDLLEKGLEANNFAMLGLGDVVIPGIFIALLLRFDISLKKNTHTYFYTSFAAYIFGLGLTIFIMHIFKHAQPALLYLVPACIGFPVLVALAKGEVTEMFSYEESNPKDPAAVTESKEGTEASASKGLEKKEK
UniProt P50747: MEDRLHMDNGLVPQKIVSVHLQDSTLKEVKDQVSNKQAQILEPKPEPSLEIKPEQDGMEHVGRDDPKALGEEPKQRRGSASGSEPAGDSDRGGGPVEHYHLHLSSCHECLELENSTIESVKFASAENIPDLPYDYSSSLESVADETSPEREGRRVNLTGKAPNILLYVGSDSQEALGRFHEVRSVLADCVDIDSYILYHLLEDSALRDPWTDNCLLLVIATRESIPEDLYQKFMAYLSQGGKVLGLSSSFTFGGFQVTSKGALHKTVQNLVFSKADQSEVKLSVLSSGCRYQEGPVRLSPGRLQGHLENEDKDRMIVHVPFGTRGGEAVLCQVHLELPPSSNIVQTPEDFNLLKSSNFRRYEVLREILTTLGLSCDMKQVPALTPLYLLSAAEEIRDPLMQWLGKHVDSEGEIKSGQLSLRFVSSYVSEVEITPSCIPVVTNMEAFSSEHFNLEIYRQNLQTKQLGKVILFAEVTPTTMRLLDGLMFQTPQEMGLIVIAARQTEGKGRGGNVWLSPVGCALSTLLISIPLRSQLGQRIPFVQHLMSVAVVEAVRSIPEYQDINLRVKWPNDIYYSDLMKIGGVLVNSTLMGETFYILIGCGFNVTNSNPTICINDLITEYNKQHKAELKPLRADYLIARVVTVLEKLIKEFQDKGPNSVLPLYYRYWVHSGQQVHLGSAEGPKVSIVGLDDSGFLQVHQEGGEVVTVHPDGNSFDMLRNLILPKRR
UniProt P09429: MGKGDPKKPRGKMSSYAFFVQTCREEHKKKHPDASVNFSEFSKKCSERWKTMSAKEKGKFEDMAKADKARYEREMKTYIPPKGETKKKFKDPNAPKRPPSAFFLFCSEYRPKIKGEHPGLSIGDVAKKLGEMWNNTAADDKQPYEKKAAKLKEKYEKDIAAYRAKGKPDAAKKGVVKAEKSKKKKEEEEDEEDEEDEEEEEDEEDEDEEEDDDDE

Columns and labels:
Assay in all cases: log2 fold change, soluble protein after heating vs DMSO (PISA); higher = thermal stabilisation; K562 lysate, 10 uM; active = over 0.2 and 3.5 SD of the protein, either way, in both replicates (recomputed)
[1] = compound: C=CC(=O)N1CCC[C@@H](n2nc(-c3ccc(Oc4ccccc4)cc3)c3c(N)ncnc32)C1 [ibrutinib]
Outline: (§1)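 Thermal stability, expressed as log-two fold change relative to solvent controls, is given from duplicates. Crude K562 extract in PBS pH 7.4 with 1 mM MgCl2, at 1 mg/mL protein, was treated with 10 μM compound for 30 min and heated in aliquots for 3 min across 48°C-58°C. After pooling, adjustment to 0.5% NP-40 at 4°C and centrifugation at 21,000xg for 90 min, supernatant protein was measured by TMTpro 16plex LC-MS/MS with channel sums equalised.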

[2] = compound: CC(=O)c1cnc2ccc(-c3cc(Cl)c(O)c(Cl)c3)nc2c1N[C@H]1CC[C@H](CN(C)C)CC1
Outline: as §1

[3] = compound: CC(C)(C)Cn1c(N)nc2ccc(-c3[nH]c(C(C)(C)C)nc3-c3ccc(F)cc3)nc21 [ralimetinib]
Outline: as §1

[4] = compound: CC(C)(O)CC(=O)NCCn1ccc2ncnc(Nc3ccc(Oc4cccc(C(F)(F)F)c4)c(Cl)c3)c21
Outline: as §1

[5] = compound: CC(C)C1=C2N=C(C=C(N2N=C1)NCC3=CC=CC=C3)NCCCCCCN
Outline: as §1

[6] = compound: CC1=C(C(CC(=O)N1)C2=CC=C(C=C2)C(F)(F)F)C(=O)NC3=C(C=C4C(=C3)C=NN4)F
Outline: as §1

[7] = compound: CC1=C(C2=C(C=C1)C(=O)C3=CC=CC=C3N2CCCN)C
Outline: as §1

[8] = compound: CC1=C(C=C(C=C1)NC(=O)C2=CC(=CC=C2)C(C)(C)C#N)NC3=CC4=C(C=C3)N=CN(C4=O)C
Outline: as §1

[9] = compound: CC1=C(C=C(C=C1)NC(=O)C2=CC(=CC=C2)N(C)C)NC(=O)C3=CC=C(C=C3)O
Outline: as §1

[10] = compound: CC1=CC=C(C=C1)SC2=C3C=C(SC3=CN=C2)C(=O)N
Outline: as §1

[11] = compound: CCCS(=O)(=O)Nc1ccc(F)c(C(=O)c2c[nH]c3ncc(-c4ccc(Cl)cc4)cc23)c1F [vemurafenib]
Outline: as §1

[12] = compound: CCCS(=O)(=O)Nc1ccc(F)c(C(=O)c2c[nH]c3ncc(Cl)cc23)c1F
Outline: as §1

[13] = compound: CCN(CCCOc1ccc2c(Nc3cc(CC(=O)Nc4cccc(F)c4)[nH]n3)ncnc2c1)CCOP(=O)(O)O [barasertib]
Outline: as §1

[14] = compound: CC[C@@H]1C(=O)N(C)c2cnc(Nc3ccc(C(=O)NC4CCN(C)CC4)cc3OC)nc2N1C1CCCC1
Outline: as §1

[15] = compound: CC[C@@H]1C(=O)N(C)c2cnc(Nc3ccc(C(=O)N[C@H]4CC[C@H](N5CCN(CC6CC6)CC5)CC4)cc3OC)nc2N1C(C)C [volasertib]
Outline: as §1

[16] = compound: CCn1c(C(=O)N(C2CC2)C2CC2)cc2c3c(ncn3C)c(Nc3cc(C)n(C)n3)nc21
Outline: as §1

[17] = compound: CCn1cc(-c2ccnc3[nH]c(-c4cccc(CN(C)C)c4)cc23)c(-c2ccc(NC(=O)N(C)C)cc2)n1
Outline: as §1

[18] = compound: CN1CCC(CNc2ccc3ncc(-c4cccc(OC(F)(F)F)c4)n3n2)CC1
Outline: as §1

[19] = compound: CN1CCN(CCOc2cc(OC3CCOCC3)c3c(Nc4c(Cl)ccc5c4OCO5)ncnc3c2)CC1 [saracatinib]
Outline: as §1

[20] = compound: CN1CCN(c2nc(C3=C(c4c[nH]c5ccccc45)C(=O)NC3=O)c3ccccc3n2)CC1 [sotrastaurin]
Outline: as §1

Measured: log2 fold change

HMGCL (UniProt P35914)
inactive: [1] 0.037 | [2] 0.008 | [3] 0.026 | [4] -0.016 | [5] -0.018 | [6] 0.001 | [7] -0.019 | [8] -0.009 | [9] 0.022 | [10] -0.014 | [11] -0.017 | [12] 0.01 | [13] 0.027 | [14] 0.037 | [15] 0.014 | [16] 0.037 | [17] 0.05 | [18] -0.02 | [19] -0.013 | [20] -0.01

HINT3 (UniProt Q9NQE9)
inactive: [1] 0.047 | [2] -0.018 | [3] 0.008 | [4] -0.068 | [5] 0.022 | [6] 0.021 | [7] 0.018 | [8] 0.061 | [9] 0.024 | [10] -0.017 | [11] 0.024 | [12] -0.028 | [13] 0.025 | [14] 0.055 | [15] -0.048 | [16] 0.01 | [17] 0.012 | [18] -0.032 | [19] 0.011 | [20] 0.02

HIP1R (UniProt O75146)
inactive: [1] -0.008 | [2] -0.006 | [3] -0.012 | [4] -0.057 | [5] -0.016 | [6] 0.041 | [7] 0.013 | [8] 0.005 | [9] 0.018 | [10] -0.012 | [11] 0.019 | [12] 0.024 | [13] 0.026 | [14] 0.018 | [15] -0.006 | [16] 0 | [17] 0.053 | [18] -0.01 | [19] 0.025 | [20] 0.001

HSD17B4 (UniProt P51659)
inactive: [1] 0.052 | [2] 0.006 | [3] 0.017 | [4] 0.015 | [5] 0.006 | [6] -0.012 | [7] -0.01 | [8] 0.032 | [9] -0.02 | [10] 0.011 | [11] -0.001 | [12] 0.014 | [13] 0.005 | [14] 0.028 | [15] -0.023 | [16] 0.004 | [17] -0.015 | [18] 0.029 | [19] -0.026 | [20] -0.024

HMG20A (UniProt Q9NP66)
inactive: [1] -0.052 | [2] 0.08 | [3] -0.014 | [4] 0.017 | [5] -0.021 | [6] 0.023 | [7] 0.076 | [8] -0.157 | [9] -0.001 | [10] -0.048 | [11] -0.008 | [12] 0.031 | [13] 0.038 | [14] 0.071 | [15] -0.035 | [16] -0.022 | [17] -0.005 | [18] 0.007 | [19] 0.013 | [20] 0.024

HNRNPA3 (UniProt P51991)
inactive: [1] -0.014 | [2] -0.027 | [3] 0.009 | [4] 0.054 | [5] -0.016 | [6] -0.017 | [7] 0.049 | [8] -0.024 | [9] -0.026 | [10] 0.073 | [11] -0.075 | [12] -0.001 | [13] -0.001 | [14] -0.032 | [15] -0.005 | [16] 0.055 | [17] -0.054 | [18] -0.02 | [19] -0.042 | [20] -0.026

HIBCH (UniProt Q6NVY1)
inactive: [1] 0.008 | [2] 0.008 | [3] 0 | [4] 0.001 | [5] -0.017 | [6] -0.004 | [7] 0.035 | [8] -0.019 | [9] -0.036 | [10] 0.023 | [11] 0.026 | [12] -0.015 | [13] 0.028 | [14] -0.028 | [15] 0.002 | [16] -0.013 | [17] 0.087 | [18] -0.036 | [19] -0.031 | [20] 0.03

HSPA5 (UniProt P11021)
inactive: [1] -0.004 | [2] 0.009 | [3] -0.002 | [4] 0.027 | [5] -0.013 | [6] -0.012 | [7] 0.029 | [8] -0.036 | [9] -0.025 | [10] 0.007 | [11] -0.049 | [12] -0.043 | [13] -0.028 | [14] -0.083 | [15] 0.004 | [16] 0.011 | [17] 0.043 | [18] -0.027 | [19] -0.003 | [20] 0.007

HIBADH (UniProt P31937)
inactive: [1] 0.02 | [2] 0.006 | [3] 0.028 | [4] -0.032 | [5] -0.014 | [6] -0.01 | [7] -0.002 | [8] 0.002 | [9] -0.02 | [10] -0.003 | [11] -0.001 | [12] 0.019 | [13] -0.055 | [14] 0.013 | [15] -0.004 | [16] -0.001 | [17] 0.035 | [18] 0.008 | [19] -0.005 | [20] 0.012

HNRNPC (UniProt P07910)
inactive: [1] -0.022 | [2] -0.034 | [3] 0.01 | [4] -0.013 | [5] 0.027 | [6] -0.033 | [7] -0.053 | [8] -0.026 | [9] 0.012 | [10] 0.03 | [11] -0.002 | [12] 0.025 | [13] -0.012 | [14] 0.02 | [15] -0.026 | [16] -0.028 | [17] 0.296 | [18] -0.012 | [19] -0.013 | [20] 0.015

HIST2H2BF isoform 2 (UniProt Q5QNW6)
inactive: [1] 0.007 | [2] -0.012 | [3] -0.011 | [4] -0.006 | [5] -0.024 | [6] -0.033 | [7] 0.056 | [8] -0.024 | [9] -0.015 | [10] 0.005 | [11] 0.009 | [12] 0.064 | [13] -0.028 | [14] -0.032 | [15] 0.013 | [16] -0.029 | [17] 0.046 | [18] 0.004 | [19] -0.045 | [20] -0.005

HNRNPUL2 (UniProt Q1KMD3)
active: [2] -0.674
inactive: [1] -0.019 | [3] -0.018 | [4] -0.02 | [5] 0.021 | [6] -0.022 | [7] -0.03 | [8] 0.011 | [9] 0.032 | [10] 0 | [11] 0.024 | [12] 0.017 | [13] 0.038 | [14] 0.005 | [15] -0.009 | [16] -0.012 | [17] -0.029 | [18] 0.008 | [19] 0.029 | [20] 0.04

HSP90AA1 isoform 2 (UniProt P07900)
inactive: [1] -0.01 | [2] 0.002 | [3] -0.018 | [4] -0.02 | [5] 0.008 | [6] -0.012 | [7] 0.001 | [8] -0.018 | [9] 0.004 | [10] 0.01 | [11] -0.006 | [12] 0.001 | [13] -0.011 | [14] -0.057 | [15] 0.001 | [16] -0.017 | [17] 0.125 | [18] -0.049 | [19] -0.006 | [20] -0.007

HM13 (UniProt Q8TCT9)
inactive: [1] 0.027 | [2] 0.038 | [3] -0.006 | [4] -0.045 | [5] 0 | [6] -0.01 | [7] 0.016 | [8] 0.038 | [9] 0.011 | [10] -0.012 | [11] 0.019 | [12] 0.015 | [13] 0.119 | [14] 0.079 | [15] 0.078 | [16] -0.028 | [17] 0.494 | [18] -0.071 | [19] 0.081 | [20] -0.017

HLCS (UniProt P50747)
active: [17] 0.293
inactive: [1] 0.012 | [2] 0.023 | [3] -0.005 | [4] -0.019 | [5] -0.025 | [6] 0.018 | [7] -0.015 | [8] 0.029 | [9] 0.057 | [10] -0.032 | [11] -0.002 | [12] 0.034 | [13] -0.001 | [14] -0.034 | [15] -0.054 | [16] 0.003 | [18] -0.041 | [19] -0.026 | [20] 0.027

HMGB1 (UniProt P09429)
active: [17] 0.389
inactive: [1] -0.012 | [2] -0.013 | [3] -0.102 | [4] 0.057 | [5] 0.032 | [6] -0.022 | [7] -0.002 | [8] 0.036 | [9] -0.077 | [10] -0.098 | [11] -0.01 | [12] -0.014 | [13] -0.013 | [14] 0.102 | [15] 0.035 | [16] -0.039 | [18] -0.184 | [19] -0.011 | [20] -0.075
